## Screening data, single-dose tests

Chains of the proteins cited; added tags and fusions are not shown. Residues count along the entry.
UniProt P9WNZ1, whole entry: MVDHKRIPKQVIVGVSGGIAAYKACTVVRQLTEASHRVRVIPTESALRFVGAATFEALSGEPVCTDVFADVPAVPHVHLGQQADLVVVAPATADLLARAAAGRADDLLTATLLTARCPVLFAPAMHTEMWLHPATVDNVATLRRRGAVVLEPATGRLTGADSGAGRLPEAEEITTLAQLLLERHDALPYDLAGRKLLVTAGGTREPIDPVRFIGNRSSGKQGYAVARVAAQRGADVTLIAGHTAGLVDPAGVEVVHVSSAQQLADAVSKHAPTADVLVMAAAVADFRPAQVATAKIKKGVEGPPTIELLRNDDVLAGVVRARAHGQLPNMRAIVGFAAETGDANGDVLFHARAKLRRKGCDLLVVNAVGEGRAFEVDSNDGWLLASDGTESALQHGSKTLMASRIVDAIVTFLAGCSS
UniProt P9WFT3, whole entry: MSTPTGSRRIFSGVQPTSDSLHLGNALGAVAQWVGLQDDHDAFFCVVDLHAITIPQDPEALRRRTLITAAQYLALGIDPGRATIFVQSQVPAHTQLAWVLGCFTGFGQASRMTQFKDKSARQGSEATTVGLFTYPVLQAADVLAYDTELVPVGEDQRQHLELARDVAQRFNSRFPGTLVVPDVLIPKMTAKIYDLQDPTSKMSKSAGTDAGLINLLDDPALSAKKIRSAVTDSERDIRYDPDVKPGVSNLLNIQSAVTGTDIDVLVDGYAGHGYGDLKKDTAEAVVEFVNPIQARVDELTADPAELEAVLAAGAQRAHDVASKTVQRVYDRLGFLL
UniProt P9WPC5, whole entry: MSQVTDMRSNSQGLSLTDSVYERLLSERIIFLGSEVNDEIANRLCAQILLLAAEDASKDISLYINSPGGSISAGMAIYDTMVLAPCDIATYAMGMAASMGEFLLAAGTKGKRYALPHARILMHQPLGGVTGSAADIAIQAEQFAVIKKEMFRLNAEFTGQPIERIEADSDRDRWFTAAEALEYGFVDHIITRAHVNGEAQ
UniProt P9WPC3, whole entry partner: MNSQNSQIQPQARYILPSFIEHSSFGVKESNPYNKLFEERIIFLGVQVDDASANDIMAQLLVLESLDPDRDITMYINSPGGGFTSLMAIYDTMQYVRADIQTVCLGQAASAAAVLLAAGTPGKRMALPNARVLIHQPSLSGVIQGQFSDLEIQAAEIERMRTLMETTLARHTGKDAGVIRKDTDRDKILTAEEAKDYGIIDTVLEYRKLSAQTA
UniProt A4I591, 1-473: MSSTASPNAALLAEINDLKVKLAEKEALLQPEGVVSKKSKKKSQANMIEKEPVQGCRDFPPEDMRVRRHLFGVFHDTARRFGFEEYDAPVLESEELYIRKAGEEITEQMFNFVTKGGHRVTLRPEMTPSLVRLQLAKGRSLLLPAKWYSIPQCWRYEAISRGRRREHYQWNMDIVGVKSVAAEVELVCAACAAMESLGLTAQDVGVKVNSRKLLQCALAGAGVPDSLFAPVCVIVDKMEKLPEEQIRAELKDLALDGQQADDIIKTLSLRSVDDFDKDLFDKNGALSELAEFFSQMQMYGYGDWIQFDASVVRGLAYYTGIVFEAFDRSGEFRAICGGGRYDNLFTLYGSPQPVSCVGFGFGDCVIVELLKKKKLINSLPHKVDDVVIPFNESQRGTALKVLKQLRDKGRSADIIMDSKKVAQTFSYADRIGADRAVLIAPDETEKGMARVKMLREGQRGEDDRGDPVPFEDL
UniProt Q4DA54, 1-478: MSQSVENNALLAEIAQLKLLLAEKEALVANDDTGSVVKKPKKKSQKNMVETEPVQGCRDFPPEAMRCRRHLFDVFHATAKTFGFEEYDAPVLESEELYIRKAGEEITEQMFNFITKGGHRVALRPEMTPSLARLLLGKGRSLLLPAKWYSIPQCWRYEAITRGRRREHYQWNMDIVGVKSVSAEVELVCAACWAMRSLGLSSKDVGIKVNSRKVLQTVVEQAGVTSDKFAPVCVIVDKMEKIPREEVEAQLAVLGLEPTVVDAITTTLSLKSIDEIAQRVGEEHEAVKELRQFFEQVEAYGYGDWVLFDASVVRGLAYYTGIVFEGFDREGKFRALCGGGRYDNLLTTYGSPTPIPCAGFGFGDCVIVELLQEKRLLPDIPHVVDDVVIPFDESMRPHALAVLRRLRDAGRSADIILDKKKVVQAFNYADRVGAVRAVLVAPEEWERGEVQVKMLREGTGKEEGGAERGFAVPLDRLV

The values are deposited in ChEMBL (CHEMBL3988442, “University of Dundee, Small-Polar-MMV Screening Library” (2021)).

The filed quantity is “Percent Effect” (%).
The record does not define 0% and 100%; most values in the screen are far below 50% and negative numbers occur (in some assays of this library far below -100).
Compounds were drawn at random from those tested, without regard to their results.
A dash means the value is not listed here; it may have been measured.

CoaBC: 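Enzyme assay of CoaBC with a phosphate dye (Biomol Green) read at 650 nm. Target: Coenzyme A biosynthesis protein CoaBC, Mycobacterium tuberculosis (UniProt P9WNZ1). Compounds at 30 µM. Higher reads as stronger inhibition, judged from the few compounds that gave an IC50. Most strong results did not repeat in a second test. About 67,000 compounds were tested under these conditions; 0.06% (about 40) showed 50% or more at least once.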
MtTrpRS: 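Tryptophan-tRNA ligase, Mycobacterium tuberculosis (UniProt P9WFT3). Enzyme assay of tryptophanyl-tRNA synthetase; the read-out is not stated. Concentration: 10 µM. Higher most likely means stronger inhibition; the record gives no direction and few retests gave an IC50. About 65,000 compounds were tested under these conditions; 0.098% (about 64) showed 50% or more at least once.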
ClpP1P2: 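Protease assay of ClpP1P2, read by the AMC dye that it sets free. Target: ClpP1P2, Mycobacterium tuberculosis (UniProt P9WPC5 and UniProt P9WPC3). Concentration: 50 µM. Direction is inferred from only a few compounds that gave an IC50; most scored high, so higher reads as stronger inhibition. Most other retested compounds had strongly negative values. Of about 69,000 compounds tested this way, about 10 (0.015%) reached 50% or more in at least one test.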
LiHisRS: 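Histidine-tRNA ligase, Leishmania infantum (UniProt A4I591). Enzyme assay of histidyl-tRNA synthetase; the read-out is not stated. Compounds at 30 µM. Higher reads as stronger inhibition (inferred: compounds with an IC50 in retests scored well above the rest). The assay is labelled LdHisRS but filed under L. infantum. About 69,000 compounds were tested under these conditions; 0.6% (about 410) showed 50% or more at least once.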
TcHisRS: 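Enzyme assay of histidyl-tRNA synthetase; the read-out is not stated. Target: Histidine-tRNA ligase, Trypanosoma cruzi CL Brener (UniProt Q4DA54). Concentration: 30 µM. Higher reads as stronger inhibition (inferred: compounds with an IC50 in retests scored well above the rest). About 69,000 compounds were tested under these conditions; 0.045% (about 31) showed 50% or more at least once.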

| structure | CoaBC | MtTrpRS | ClpP1P2 | LiHisRS | TcHisRS |
|---|---|---|---|---|---|
| `Cc1cccc(N2CCN(CCCNC(=O)c3nccn3C)CC2)c1` | -27.95% | -5.629% | -3.405% | 23.08% | 5.882% |
| `CCCOc1cc(C)ccc1NC(=O)N(C)C` | -40.53% | 0.4301% | 0.6978% | 17.7% | 0% |
| `CCC1(CO)CCCN(c2ncccc2C#N)C1` (stereo not given) | -16.42% | -6.115% | -51.12% | -3.846% | 3.333% |
| `Cc1nn(CCO)c(C)c1CNC1CCc2c(F)cccc21` (stereo not given) | 0.1248% | 0.4691% | -7.871% | 4.959% | 3.061% |
| `Cn1cc(C2CC(=O)NC23CCN(C(=O)NC2CC2)CC3)cn1` (stereo not given) | -20.59% | -5.408% | -4.869% | 1.389% | 0.9524% |
| `CNC(=O)CN1CCC(NC(=O)CC(C)CCc2ccccc2)CC1` (stereo not given) | -13.61% | -0.6717% | 0.8878% | -54.29% | -7.143% |
| `CC(CN1CCOC1=O)NC(=O)c1cccc2cc[nH]c12` (stereo not given) | -19.25% | 2.922% | -1.258% | 11.67% | 3.478% |
| `Cn1cc(-c2csc(N3CCN(c4nccs4)CC3)n2)cn1` | -3.748% | 4.155% | -0.5782% | 12.12% | 2.116% |
| `Cc1nnc([C@@H]2CC[C@@H]3[C@@H](CCN3S(C)(=O)=O)O2)o1` | 3.299% | -10.29% | 13.92% | 11.76% | 1.97% |
| `COCCN1CC(C(=O)NCc2cccnc2-n2cccn2)CC1=O` (stereo not given) | 5.744% | -3.636% | -50.66% | 9.735% | 5.539% |
| `O=C(NCc1ccc2c(c1)CCCO2)c1ccc(C2CCNC2)cc1` (stereo not given) | 5.443% | 1.632% | 1.874% | 8.434% | 0% |
| `CCn1nc2c(cc1=O)CN(CC(=O)Nc1nccs1)CC2` | 3.194% | 3.809% | -5.852% | 18.25% | 10.59% |
| `Cc1nn(C)c(Cl)c1C1CCCN1C(=O)c1ccnn1C` (stereo not given) | 9.317% | 1.656% | 6.256% | 12.28% | 0.2865% |
| `O=C(NCCC1CCCCO1)c1cc(COc2ccccc2F)[nH]n1` (stereo not given) | -7.127% | -5.206% | -5.073% | 8.571% | 4.082% |
| `CN(Cc1ccsc1)C(=O)Nc1ccc(=O)n(C)c1` | - | 5.47% | 9.888% | 122.9% | 12.99% |
| `O=C1C(NCc2nnc3n2CCCC3)CCCN1c1cccc(F)c1` (stereo not given) | 5.699% | -0.2227% | 22.45% | -2.128% | 2.29% |
| `CCn1nc(C)c(CCNC(=O)C2CCCN(C(=O)N(C)C)C2)c1C` (stereo not given) | 3.947% | 2.59% | -16.52% | 17.14% | 3.306% |
| `O=C(NCCN1CCCC1)c1ccc2c(-c3nccs3)noc2c1` | -28.48% | -7.502% | 9.88% | 0% | 1.149% |
| `O=S(=O)(N1CCCC1)N1C[C@@H](c2cccc(F)c2)[C@@H]2NCCCCC[C@H]21` | 0.2433% | 1.449% | 2.817% | -7.368% | 5.224% |
| `CC(O)CN1CCN(C(=O)Cc2ccccc2Cl)CC1` (stereo not given) | 2.046% | 0.312% | -28.88% | 14.68% | 8.824% |
| `CC(C)c1cc(NC2CCN(C(=O)N3CCCC3)CC2)ncn1` | 7.847% | 9.777% | -9.331% | 23.08% | -1.685% |
| `CC(C)N1[C@@H](C(=O)NCC2CC2)C[C@@H]2CN(Cc3ccco3)C[C@@H]21` | 5.176% | -1.658% | -1.6% | 21.1% | 4.327% |
| `CCN(CC)CCn1cnc(-c2ccccc2)c1-c1cnn(CC)c1` | -0.1242% | -4.052% | -21.2% | 10.83% | 1.932% |
| `O=C(c1ccn(COc2ccc(F)cc2)n1)N1CCCC1` | -2.771% | -4.922% | 2.078% | 6.897% | 2.609% |
| `CC(C)NC(=O)N(C)C(c1cccc(F)c1)c1ccccn1` (stereo not given) | 3.584% | -3.481% | -8.306% | 5.769% | 2.286% |
| `COCCN(CCOC)C(=O)c1ccn(-c2ccccc2Cl)n1` | -1.98% | -4.219% | -12.14% | -8% | 1.205% |
| `CN(C)S(=O)(=O)c1ccc(CN2CCCC2c2ccc[nH]2)o1` (stereo not given) | 2.17% | -3.216% | -1.292% | 1.515% | 0% |
| `CC(C)c1nn(C)c(Cl)c1CNCc1cccnc1N(C)C` | -9.091% | -2.805% | 1.367% | 8% | 7.065% |
| `CN(CCOc1cccc(S(C)(=O)=O)c1)CC(F)F` | 1.684% | 2.194% | -7.943% | -1.064% | 1.01% |
| `CC(COc1ccccc1)NCc1cn2ccccc2n1` (stereo not given) | 4.453% | -2.673% | -6.381% | -4.878% | 3.365% |
| `CC(NC(=O)NCCCn1ccnc1)c1ccc2c(c1)CCC(=O)N2` (stereo not given) | 2.314% | 2.754% | 1.707% | -16.85% | 0.7519% |
| `CC(C)(C)c1noc(CN2CCCc3cc(OC(F)(F)F)ccc32)n1` | 10.45% | 1.29% | 6.281% | 12.39% | -9.649% |
| `COCCN1CCC2(CC1)CC(c1cccnc1)CO2` (stereo not given) | -15.06% | -8.439% | -9.212% | 13.89% | 6.542% |
| `COCc1cc(N2CCOCC2)n2nccc2n1` | 16.04% | 0.3882% | 1.162% | 20% | 6.186% |
| `Cn1cc(CN2CCCC(CCc3ccccc3C(F)(F)F)C2)cn1` (stereo not given) | -24.21% | -0.2981% | -15.24% | 13.7% | 14.21% |
| `Cc1nn(C)cc1CN1CCCn2nc(CNC(=O)C3CCC3)cc2C1` | 3.016% | 1.522% | -5.223% | 13.6% | -0.5025% |
| `CC(NCCc1nccn1Cc1ccccc1)c1cccs1` (stereo not given) | -8.73% | 5.464% | -20.86% | 6.25% | -1.724% |
| `COc1cccc(CN(C)C(C)c2ccco2)c1OCCn1ccnc1` (stereo not given) | 0% | -5.684% | -4.278% | 5.759% | -0.5348% |
| `Cc1[nH]nc2ncc(C(=O)N3CCCC3c3noc(C(C)C)n3)cc12` (stereo not given) | 3.125% | -6.23% | -10.38% | 12.36% | 7.772% |
| `CSc1nc2cc(C)n(CC(=O)NC(C)C)c2c(=O)n1CC(C)C` | 1.38% | -2.445% | -16.48% | 11.86% | 5.366% |
| `CCOCC(O)CN1CCN(C(=O)c2ccccc2Cl)CC1` (stereo not given) | -3.457% | 0.9434% | 3.282% | 10.4% | -1.901% |
| `CN(C)C(=O)N1Cc2nnn(C)c2C(COCC2CC2)C1` (stereo not given) | 4.516% | 6.332% | -13.23% | 7.619% | 0% |
| `Cc1ccoc1C(=O)N1CCOC2(CCCC2)C1` | 8.182% | -6.245% | -9.35% | 10.96% | -1.622% |
| `c1ccc(Cn2ccnc2CN2CCCC2c2noc(C3CC3)n2)cc1` (stereo not given) | 2.999% | -1.436% | -5.977% | 20.27% | 2.642% |
| `CCn1ccnc1CN1CCN(CC(=O)NC2CCOCC2)CC1` | 5.115% | 17.47% | -24.09% | 12.84% | 1.765% |
| `O=C(CCN1CCc2ccccc21)N1CC(C(=O)N2CCOCC2)C1` | 2.596% | 0.1569% | 2.756% | 8.966% | 3.802% |
| `CC(C)CC(CNC(=O)NCc1cc[nH]n1)N1CCOCC1` (stereo not given) | 1.554% | 3.489% | 26.3% | 2.128% | -3.817% |
| `CCn1c(SC)nnc1C1CCN(C(=O)N2CCCC2)CC1` | 5.742% | -2.995% | -9.968% | 8.633% | 8.812% |
| `CN(C)[C@H]1CCN(c2ccnc(C(=O)NCc3ccco3)c2)C1` | 2.439% | -6.282% | -6.561% | 15% | 2.597% |
| `CN1C(Cn2cccn2)C[C@@H]2CN(C(=O)c3cccc(C#N)c3)CC[C@@H]21` (stereo not given in full) | -5.929% | 0.3393% | -4.582% | 4.11% | -2% |
| `Cc1cc(CN2CCN(C(=O)NCc3csc(C)n3)CC2)on1` | 2.477% | -4.655% | -1.846% | 14.91% | 1.734% |
| `CN1C(=O)C[C@@H]2[C@@H]1CCN2C(=O)c1ccc[nH]1` | 6.667% | -0.9046% | -3.968% | 0% | 2.479% |
| `O=C(NCCc1ccccn1)[C@@]12CCO[C@@H]1CCN(c1ncccn1)C2` | 3.475% | -0.8721% | -4.753% | 13.46% | 1.942% |
| `Cc1csc(CCNC(=O)Nc2cc(C(F)(F)F)c[nH]c2=O)n1` | -2.806% | 4.965% | -20.73% | 20.99% | -1.339% |
| `COc1ccc(CN2CCC3(CC2)C(C(=O)O)CC(=O)N3C)cc1Cl` (stereo not given) | 13.29% | -5.531% | -13.15% | 8.772% | 0% |
| `Cn1ccc(CN2CCC3(CC2)CC(Nc2ccccn2)CO3)n1` (stereo not given) | - | 0.0969% | -9.354% | 8.547% | 4.908% |
| `Cc1nc(C)n(C2CCCN(C(=O)CCc3cn(C)nc3C)C2)n1` (stereo not given) | 1.015% | -1.872% | -11.42% | 12.94% | 3.139% |
| `COC(=O)c1ccc(OC)c(Cn2cc(Br)cn2)c1` | -24.22% | 2.023% | -12.54% | 1.124% | 0.5181% |

The last 7 entries again:

{"structure": "CN1C(=O)C[C@@H]2[C@@H]1CCN2C(=O)c1ccc[nH]1", "CoaBC": 6.667, "MtTrpRS": -0.9046, "ClpP1P2": -3.968, "LiHisRS": 0, "TcHisRS": 2.479}
{"structure": "O=C(NCCc1ccccn1)[C@@]12CCO[C@@H]1CCN(c1ncccn1)C2", "CoaBC": 3.475, "MtTrpRS": -0.8721, "ClpP1P2": -4.753, "LiHisRS": 13.46, "TcHisRS": 1.942}
{"structure": "Cc1csc(CCNC(=O)Nc2cc(C(F)(F)F)c[nH]c2=O)n1", "CoaBC": -2.806, "MtTrpRS": 4.965, "ClpP1P2": -20.73, "LiHisRS": 20.99, "TcHisRS": -1.339}
{"structure": "COc1ccc(CN2CCC3(CC2)C(C(=O)O)CC(=O)N3C)cc1Cl", "stereo": "stereo not given", "CoaBC": 13.29, "MtTrpRS": -5.531, "ClpP1P2": -13.15, "LiHisRS": 8.772, "TcHisRS": 0}
{"structure": "Cn1ccc(CN2CCC3(CC2)CC(Nc2ccccn2)CO3)n1", "stereo": "stereo not given", "MtTrpRS": 0.0969, "ClpP1P2": -9.354, "LiHisRS": 8.547, "TcHisRS": 4.908}
{"structure": "Cc1nc(C)n(C2CCCN(C(=O)CCc3cn(C)nc3C)C2)n1", "stereo": "stereo not given", "CoaBC": 1.015, "MtTrpRS": -1.872, "ClpP1P2": -11.42, "LiHisRS": 12.94, "TcHisRS": 3.139}
{"structure": "COC(=O)c1ccc(OC)c(Cn2cc(Br)cn2)c1", "CoaBC": -24.22, "MtTrpRS": 2.023, "ClpP1P2": -12.54, "LiHisRS": 1.124, "TcHisRS": 0.5181}